Experimental data published in the supplement of paper PMC7666118.
Some of the results follow.

Chains of the proteins cited; added tags and fusions are not shown. Lines headed by an entry give the natural chain unless they say otherwise; changes in a name come on top.
UniProt P28702: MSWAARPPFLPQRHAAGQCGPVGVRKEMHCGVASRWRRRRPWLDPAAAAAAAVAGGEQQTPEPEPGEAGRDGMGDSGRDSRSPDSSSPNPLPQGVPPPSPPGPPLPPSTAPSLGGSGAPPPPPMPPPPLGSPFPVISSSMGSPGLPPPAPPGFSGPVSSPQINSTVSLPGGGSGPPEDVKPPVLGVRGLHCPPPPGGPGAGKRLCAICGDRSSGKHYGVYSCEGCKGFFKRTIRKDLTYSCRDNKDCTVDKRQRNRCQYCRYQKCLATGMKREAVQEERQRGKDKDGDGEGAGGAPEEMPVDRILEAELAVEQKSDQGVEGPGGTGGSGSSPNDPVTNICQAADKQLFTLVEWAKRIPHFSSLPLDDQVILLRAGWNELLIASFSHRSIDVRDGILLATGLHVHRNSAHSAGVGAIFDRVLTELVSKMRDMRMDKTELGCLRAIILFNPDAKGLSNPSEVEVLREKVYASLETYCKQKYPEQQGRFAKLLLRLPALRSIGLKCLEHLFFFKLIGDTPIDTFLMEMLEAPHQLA
UniProt O94762: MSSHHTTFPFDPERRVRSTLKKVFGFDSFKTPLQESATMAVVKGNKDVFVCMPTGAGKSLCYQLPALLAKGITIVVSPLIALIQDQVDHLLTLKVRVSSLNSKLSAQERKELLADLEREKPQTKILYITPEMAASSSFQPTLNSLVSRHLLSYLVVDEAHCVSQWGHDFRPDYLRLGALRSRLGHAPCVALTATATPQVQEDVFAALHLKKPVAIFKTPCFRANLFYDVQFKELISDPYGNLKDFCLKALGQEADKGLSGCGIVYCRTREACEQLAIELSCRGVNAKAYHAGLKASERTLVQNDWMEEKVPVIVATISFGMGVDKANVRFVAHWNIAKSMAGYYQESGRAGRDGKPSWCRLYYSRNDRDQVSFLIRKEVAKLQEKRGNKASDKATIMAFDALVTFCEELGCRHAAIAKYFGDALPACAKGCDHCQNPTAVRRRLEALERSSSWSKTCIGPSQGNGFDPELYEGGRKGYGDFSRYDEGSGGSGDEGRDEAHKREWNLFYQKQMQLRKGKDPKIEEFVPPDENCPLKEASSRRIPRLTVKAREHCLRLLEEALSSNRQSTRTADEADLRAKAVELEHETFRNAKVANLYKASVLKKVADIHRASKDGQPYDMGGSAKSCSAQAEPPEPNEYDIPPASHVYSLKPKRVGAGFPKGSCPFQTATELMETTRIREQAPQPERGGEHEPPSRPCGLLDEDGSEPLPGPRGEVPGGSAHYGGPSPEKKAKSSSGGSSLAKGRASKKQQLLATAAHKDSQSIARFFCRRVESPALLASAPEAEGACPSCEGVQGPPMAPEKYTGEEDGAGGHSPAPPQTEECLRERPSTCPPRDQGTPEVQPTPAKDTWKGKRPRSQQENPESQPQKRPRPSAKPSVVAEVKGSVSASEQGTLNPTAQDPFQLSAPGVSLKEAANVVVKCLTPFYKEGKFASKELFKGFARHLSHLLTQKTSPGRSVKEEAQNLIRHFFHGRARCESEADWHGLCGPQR
UniProt Q9HA92: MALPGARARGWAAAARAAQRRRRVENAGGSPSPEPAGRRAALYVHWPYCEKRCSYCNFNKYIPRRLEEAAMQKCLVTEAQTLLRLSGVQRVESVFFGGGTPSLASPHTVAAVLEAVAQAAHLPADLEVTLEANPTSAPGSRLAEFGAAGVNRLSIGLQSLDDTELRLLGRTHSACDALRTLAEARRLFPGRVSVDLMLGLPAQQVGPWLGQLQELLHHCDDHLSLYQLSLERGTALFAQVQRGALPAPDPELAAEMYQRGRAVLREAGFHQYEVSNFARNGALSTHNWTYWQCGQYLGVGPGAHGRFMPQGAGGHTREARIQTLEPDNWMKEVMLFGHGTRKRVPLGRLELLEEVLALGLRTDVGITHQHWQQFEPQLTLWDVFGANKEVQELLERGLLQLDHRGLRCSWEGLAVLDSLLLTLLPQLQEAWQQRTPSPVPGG
UniProt Q14257: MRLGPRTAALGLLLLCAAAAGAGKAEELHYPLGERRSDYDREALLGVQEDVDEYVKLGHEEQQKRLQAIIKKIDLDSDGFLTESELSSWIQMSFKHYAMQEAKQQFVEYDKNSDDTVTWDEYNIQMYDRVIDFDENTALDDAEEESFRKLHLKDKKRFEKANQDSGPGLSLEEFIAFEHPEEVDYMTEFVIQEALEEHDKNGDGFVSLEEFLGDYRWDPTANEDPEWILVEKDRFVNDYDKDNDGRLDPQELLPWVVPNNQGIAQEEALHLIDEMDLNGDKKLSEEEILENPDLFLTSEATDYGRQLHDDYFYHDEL
UniProt Q8TC12: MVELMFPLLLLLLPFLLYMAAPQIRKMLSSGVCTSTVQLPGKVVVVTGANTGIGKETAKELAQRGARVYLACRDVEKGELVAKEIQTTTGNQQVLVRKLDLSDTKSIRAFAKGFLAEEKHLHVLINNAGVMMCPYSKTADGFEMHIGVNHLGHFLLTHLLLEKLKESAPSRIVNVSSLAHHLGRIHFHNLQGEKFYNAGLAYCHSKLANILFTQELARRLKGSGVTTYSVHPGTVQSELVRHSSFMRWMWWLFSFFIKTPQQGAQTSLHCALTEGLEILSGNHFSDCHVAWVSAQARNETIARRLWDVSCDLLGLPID
UniProt Q969G6: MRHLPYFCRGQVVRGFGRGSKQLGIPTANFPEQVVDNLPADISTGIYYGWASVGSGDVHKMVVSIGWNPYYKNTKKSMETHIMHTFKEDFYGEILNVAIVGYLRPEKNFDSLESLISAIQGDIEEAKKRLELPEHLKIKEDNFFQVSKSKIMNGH
UniProt Q96GF1: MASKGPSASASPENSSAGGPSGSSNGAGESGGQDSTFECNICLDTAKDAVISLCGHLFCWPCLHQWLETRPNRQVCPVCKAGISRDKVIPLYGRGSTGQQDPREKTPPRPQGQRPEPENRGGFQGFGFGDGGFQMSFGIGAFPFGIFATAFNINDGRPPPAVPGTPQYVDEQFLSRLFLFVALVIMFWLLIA
UniProt Q5XPI4: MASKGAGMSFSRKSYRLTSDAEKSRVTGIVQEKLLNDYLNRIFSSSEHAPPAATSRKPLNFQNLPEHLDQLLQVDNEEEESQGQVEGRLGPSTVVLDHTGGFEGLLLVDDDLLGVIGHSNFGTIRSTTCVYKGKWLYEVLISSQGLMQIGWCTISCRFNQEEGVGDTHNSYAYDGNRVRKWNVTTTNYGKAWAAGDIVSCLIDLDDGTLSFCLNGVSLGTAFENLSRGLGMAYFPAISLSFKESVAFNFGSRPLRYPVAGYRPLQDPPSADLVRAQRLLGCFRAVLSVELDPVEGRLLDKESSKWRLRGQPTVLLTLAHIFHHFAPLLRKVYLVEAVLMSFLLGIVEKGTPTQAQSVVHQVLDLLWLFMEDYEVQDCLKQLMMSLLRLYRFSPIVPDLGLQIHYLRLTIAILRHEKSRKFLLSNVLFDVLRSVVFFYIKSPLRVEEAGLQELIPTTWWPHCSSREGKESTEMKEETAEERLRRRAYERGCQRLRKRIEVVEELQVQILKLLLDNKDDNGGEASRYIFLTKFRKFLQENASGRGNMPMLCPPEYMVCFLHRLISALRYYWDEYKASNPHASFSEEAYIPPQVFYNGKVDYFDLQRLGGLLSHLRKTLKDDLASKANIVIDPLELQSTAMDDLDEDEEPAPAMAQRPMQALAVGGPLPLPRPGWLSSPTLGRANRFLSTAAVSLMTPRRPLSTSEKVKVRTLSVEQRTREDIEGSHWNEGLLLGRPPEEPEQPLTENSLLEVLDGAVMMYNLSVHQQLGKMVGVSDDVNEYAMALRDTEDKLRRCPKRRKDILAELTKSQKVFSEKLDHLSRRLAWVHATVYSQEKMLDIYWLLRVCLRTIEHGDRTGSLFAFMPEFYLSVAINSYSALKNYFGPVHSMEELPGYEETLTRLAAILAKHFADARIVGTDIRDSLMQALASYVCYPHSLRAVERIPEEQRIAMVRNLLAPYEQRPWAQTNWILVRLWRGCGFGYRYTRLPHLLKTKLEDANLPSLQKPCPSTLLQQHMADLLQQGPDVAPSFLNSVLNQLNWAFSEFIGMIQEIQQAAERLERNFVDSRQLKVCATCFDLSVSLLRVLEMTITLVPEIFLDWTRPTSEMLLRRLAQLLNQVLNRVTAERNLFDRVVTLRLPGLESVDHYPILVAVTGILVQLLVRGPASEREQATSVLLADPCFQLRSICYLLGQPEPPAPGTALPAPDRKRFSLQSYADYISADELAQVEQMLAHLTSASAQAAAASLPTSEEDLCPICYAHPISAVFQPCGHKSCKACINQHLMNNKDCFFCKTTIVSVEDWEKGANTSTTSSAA
UniProt O43665: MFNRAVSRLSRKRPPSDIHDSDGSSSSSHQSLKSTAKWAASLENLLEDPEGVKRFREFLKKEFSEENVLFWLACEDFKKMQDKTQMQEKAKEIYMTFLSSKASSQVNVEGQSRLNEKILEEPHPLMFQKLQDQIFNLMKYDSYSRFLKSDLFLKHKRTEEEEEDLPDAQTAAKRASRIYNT
UniProt Q9NVN3: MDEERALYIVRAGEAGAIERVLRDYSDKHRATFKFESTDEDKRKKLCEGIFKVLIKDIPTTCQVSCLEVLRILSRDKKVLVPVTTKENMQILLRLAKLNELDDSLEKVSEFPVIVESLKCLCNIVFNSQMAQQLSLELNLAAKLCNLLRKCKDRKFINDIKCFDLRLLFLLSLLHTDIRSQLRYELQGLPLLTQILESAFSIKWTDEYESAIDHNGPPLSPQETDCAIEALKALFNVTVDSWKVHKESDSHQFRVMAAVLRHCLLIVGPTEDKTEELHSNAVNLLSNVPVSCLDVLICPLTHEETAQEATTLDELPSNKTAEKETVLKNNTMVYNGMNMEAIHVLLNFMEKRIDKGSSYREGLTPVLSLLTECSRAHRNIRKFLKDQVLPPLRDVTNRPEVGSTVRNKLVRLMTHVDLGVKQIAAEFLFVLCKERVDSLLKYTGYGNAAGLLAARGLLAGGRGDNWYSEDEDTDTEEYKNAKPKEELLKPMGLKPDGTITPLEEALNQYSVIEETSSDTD
UniProt Q9UBF6, whole entry: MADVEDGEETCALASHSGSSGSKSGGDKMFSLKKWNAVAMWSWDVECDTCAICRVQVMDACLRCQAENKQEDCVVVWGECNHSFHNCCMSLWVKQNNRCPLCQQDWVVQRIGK
UniProt Q96IZ7: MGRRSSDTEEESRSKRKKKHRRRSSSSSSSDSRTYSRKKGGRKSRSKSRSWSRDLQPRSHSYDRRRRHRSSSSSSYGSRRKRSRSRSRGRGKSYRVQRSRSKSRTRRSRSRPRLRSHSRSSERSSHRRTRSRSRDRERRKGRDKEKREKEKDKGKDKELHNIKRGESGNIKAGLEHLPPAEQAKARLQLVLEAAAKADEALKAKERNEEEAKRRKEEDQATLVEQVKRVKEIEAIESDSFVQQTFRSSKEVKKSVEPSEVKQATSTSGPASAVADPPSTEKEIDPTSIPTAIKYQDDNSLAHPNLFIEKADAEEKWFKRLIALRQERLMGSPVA
UniProt P61586, whole entry: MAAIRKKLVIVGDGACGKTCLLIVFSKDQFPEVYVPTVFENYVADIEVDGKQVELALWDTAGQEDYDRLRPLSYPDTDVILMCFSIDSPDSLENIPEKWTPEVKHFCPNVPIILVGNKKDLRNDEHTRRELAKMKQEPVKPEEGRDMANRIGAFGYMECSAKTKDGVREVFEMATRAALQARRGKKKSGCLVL
UniProt O75170: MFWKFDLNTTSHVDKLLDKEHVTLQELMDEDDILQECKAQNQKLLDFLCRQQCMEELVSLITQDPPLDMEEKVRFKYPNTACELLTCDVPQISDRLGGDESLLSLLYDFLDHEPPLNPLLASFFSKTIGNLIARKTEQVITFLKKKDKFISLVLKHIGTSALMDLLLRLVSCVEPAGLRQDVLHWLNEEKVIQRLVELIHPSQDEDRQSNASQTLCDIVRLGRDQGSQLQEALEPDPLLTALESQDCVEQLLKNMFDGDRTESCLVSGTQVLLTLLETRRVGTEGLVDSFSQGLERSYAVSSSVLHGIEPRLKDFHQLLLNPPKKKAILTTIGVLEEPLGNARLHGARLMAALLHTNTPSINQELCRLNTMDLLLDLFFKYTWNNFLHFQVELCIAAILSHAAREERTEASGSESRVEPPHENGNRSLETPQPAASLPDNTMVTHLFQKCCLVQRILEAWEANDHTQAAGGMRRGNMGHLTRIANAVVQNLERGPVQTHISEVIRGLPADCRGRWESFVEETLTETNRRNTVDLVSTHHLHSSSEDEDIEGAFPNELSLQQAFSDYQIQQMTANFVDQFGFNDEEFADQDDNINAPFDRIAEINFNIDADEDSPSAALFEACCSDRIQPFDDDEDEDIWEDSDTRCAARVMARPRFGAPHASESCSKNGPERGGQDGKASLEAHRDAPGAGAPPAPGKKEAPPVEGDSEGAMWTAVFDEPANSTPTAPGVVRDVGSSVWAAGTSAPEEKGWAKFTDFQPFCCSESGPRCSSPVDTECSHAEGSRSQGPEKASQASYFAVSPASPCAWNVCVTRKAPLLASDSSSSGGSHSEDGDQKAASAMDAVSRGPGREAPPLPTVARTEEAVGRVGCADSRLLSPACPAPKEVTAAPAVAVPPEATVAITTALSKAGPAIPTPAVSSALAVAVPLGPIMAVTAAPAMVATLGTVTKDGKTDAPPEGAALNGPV

These targets were tested with COc1ccc(Cn2ccc3ccc(C(=O)NO)cc32)cc1 (assay: dose-dependent thermal stabilisation call (2D-TPP, DLPTP, 10% FDR) (binary (1 = stabilised)); higher = stabilised by the compound). Details: system: HL-60 intact cells; concentration range 0.04-10 µM.

Target	dose-dependent thermal stabilisation call
RPLP0-LIKE	inactive: 0
RPL22 (UniProt P35268)	inactive: 0
RXRB (UniProt P28702)	inactive: 0
RNF41 (UniProt Q9H4P4)	inactive: 0
RPS16 (UniProt P62249)	inactive: 0
RPL34 (UniProt P49207)	inactive: 0
RECQL5 (UniProt O94762)	inactive: 0
RSAD1 (UniProt Q9HA92)	inactive: 0
RINL (UniProt Q6ZS11)	inactive: 0
RRN3 (UniProt Q9NYV6)	inactive: 0
RCN2 (UniProt Q14257)	inactive: 0
RPL7L1 (UniProt Q6DKI1)	inactive: 0
RPS13 (UniProt P62277)	inactive: 0
RPS25 (UniProt P62851)	inactive: 0
RTN3 (UniProt O95197)	inactive: 0
RPS3A (UniProt P61247)	inactive: 0
RDH11 (UniProt Q8TC12)	inactive: 0
RFK (UniProt Q969G6)	inactive: 0
ROD1 (UniProt O95758)	inactive: 0

Target	dose-dependent thermal stabilisation call
RRAGD (UniProt Q9NQL2)	inactive: 0
RMND1 (UniProt Q9NWS8)	inactive: 0
RNF185 (UniProt Q96GF1)	inactive: 0
RNF123 (UniProt Q5XPI4)	inactive: 0
SAMD4B (UniProt Q5PRF9)	inactive: 0
RP3-402G11 5	inactive: 0
RGS10 (UniProt O43665)	inactive: 0
RIC8B (UniProt Q9NVN3)	inactive: 0
RNF160 (UniProt O94822)	inactive: 0
RNF7 (UniProt Q9UBF6)	inactive: 0
RSRC1 (UniProt Q96IZ7)	inactive: 0
REXO4 (UniProt Q9GZR2)	inactive: 0
RNF5 (UniProt Q99942)	inactive: 0
RHOA (UniProt P61586)	inactive: 0
SAPS2 (UniProt O75170)	inactive: 0
RPL31 (UniProt P62899)	inactive: 0
RPS14 (UniProt P62263)	inactive: 0
RPGR (UniProt Q92834)	inactive: 0

Rewritten with bars between the fields: part of the list above
Target | dose-dependent thermal stabilisation call
SAMD4B (UniProt Q5PRF9) | inactive: 0
RGS10 (UniProt O43665) | inactive: 0
